Publication PMC7183511
No constants are given. Whether binding was seen depends on the method and setting. In cells and extracts the contact can be indirect. Some entries that bind do so weakly or less than the wild type.

By UniProt entry, the sequences of proteins in these tests, tags left out. Where a name states a change or a piece, a line headed by the entry shows the natural chain unless it says otherwise. Residues count along the entry.
UniProt O08532, residues 25-1103: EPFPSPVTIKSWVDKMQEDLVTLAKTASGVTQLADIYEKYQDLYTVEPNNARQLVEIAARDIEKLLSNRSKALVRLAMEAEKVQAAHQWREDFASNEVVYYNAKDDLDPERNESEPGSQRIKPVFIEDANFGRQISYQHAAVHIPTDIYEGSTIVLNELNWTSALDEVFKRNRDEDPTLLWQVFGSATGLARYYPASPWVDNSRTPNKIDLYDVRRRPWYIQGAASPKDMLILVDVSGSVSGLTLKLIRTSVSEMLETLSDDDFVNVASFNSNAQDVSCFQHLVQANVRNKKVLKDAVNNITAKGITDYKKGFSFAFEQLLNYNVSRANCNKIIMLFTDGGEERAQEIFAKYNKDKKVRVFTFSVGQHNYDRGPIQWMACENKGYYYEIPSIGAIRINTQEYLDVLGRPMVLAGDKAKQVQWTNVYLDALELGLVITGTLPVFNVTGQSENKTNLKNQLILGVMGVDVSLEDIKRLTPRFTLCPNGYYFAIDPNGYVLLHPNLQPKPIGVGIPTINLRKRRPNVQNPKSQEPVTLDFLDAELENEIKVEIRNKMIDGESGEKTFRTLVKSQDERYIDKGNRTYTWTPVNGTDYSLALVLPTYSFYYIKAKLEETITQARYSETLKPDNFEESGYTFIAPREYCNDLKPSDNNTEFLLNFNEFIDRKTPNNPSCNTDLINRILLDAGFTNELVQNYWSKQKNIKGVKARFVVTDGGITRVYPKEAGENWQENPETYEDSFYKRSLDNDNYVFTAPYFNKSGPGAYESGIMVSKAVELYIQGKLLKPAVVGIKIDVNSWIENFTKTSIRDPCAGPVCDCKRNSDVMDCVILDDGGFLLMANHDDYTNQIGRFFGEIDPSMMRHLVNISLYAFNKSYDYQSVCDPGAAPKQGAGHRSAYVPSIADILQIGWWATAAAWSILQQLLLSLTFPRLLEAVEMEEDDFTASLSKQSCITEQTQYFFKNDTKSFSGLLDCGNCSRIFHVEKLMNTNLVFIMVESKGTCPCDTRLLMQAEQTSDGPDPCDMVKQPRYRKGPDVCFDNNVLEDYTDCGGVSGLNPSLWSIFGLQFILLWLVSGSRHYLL
UniProt Q01815: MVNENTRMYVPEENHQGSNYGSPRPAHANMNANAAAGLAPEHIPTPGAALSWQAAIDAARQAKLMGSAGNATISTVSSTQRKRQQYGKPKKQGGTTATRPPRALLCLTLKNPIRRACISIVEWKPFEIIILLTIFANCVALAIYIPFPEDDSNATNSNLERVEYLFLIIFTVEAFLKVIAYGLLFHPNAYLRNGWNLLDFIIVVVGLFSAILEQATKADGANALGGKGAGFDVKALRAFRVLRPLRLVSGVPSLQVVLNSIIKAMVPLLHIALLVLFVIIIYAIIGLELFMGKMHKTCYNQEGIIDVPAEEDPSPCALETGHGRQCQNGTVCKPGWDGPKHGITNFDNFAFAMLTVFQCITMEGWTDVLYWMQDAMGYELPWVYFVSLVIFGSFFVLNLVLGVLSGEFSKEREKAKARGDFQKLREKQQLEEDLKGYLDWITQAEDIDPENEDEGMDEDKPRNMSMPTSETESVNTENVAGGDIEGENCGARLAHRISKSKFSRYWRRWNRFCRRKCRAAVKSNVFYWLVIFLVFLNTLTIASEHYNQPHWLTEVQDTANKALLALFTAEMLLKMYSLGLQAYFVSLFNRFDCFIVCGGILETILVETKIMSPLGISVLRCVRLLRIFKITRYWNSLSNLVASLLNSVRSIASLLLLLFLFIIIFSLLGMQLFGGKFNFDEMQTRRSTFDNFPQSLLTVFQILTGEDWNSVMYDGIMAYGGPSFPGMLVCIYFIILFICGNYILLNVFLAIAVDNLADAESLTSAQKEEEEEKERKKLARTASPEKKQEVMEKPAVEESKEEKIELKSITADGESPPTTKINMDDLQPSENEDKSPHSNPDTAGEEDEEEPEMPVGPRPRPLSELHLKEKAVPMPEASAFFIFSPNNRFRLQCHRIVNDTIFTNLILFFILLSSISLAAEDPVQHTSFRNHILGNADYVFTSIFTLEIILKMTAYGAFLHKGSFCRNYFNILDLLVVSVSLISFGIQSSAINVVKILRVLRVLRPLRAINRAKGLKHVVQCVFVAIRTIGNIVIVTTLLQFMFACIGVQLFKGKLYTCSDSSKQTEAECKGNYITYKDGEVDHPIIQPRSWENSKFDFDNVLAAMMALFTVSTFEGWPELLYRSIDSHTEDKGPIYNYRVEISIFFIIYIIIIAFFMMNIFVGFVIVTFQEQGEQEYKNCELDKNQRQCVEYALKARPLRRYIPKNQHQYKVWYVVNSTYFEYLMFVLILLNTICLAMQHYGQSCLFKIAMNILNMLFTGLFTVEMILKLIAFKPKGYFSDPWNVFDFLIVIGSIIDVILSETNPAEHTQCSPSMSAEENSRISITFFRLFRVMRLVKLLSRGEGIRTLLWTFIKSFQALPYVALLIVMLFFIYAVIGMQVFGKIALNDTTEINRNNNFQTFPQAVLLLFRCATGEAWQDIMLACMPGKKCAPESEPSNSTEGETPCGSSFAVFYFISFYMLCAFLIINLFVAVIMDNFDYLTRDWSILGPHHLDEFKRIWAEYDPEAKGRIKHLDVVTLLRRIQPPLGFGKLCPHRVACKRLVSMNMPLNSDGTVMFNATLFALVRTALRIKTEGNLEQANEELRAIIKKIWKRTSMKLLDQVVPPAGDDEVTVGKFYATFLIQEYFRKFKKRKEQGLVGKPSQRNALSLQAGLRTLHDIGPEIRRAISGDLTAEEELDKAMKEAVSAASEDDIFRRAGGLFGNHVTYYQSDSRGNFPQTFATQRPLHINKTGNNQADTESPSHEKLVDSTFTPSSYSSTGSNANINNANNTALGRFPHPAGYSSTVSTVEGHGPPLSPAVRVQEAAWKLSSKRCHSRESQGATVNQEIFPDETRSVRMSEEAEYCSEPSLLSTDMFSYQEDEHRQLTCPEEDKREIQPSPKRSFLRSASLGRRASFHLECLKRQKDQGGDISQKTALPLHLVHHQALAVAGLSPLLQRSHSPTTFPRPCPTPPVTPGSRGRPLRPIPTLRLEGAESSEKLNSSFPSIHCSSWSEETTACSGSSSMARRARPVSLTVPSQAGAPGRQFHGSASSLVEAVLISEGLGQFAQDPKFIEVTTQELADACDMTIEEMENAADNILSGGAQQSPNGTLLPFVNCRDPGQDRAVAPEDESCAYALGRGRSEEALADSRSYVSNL
UniProt Q99246: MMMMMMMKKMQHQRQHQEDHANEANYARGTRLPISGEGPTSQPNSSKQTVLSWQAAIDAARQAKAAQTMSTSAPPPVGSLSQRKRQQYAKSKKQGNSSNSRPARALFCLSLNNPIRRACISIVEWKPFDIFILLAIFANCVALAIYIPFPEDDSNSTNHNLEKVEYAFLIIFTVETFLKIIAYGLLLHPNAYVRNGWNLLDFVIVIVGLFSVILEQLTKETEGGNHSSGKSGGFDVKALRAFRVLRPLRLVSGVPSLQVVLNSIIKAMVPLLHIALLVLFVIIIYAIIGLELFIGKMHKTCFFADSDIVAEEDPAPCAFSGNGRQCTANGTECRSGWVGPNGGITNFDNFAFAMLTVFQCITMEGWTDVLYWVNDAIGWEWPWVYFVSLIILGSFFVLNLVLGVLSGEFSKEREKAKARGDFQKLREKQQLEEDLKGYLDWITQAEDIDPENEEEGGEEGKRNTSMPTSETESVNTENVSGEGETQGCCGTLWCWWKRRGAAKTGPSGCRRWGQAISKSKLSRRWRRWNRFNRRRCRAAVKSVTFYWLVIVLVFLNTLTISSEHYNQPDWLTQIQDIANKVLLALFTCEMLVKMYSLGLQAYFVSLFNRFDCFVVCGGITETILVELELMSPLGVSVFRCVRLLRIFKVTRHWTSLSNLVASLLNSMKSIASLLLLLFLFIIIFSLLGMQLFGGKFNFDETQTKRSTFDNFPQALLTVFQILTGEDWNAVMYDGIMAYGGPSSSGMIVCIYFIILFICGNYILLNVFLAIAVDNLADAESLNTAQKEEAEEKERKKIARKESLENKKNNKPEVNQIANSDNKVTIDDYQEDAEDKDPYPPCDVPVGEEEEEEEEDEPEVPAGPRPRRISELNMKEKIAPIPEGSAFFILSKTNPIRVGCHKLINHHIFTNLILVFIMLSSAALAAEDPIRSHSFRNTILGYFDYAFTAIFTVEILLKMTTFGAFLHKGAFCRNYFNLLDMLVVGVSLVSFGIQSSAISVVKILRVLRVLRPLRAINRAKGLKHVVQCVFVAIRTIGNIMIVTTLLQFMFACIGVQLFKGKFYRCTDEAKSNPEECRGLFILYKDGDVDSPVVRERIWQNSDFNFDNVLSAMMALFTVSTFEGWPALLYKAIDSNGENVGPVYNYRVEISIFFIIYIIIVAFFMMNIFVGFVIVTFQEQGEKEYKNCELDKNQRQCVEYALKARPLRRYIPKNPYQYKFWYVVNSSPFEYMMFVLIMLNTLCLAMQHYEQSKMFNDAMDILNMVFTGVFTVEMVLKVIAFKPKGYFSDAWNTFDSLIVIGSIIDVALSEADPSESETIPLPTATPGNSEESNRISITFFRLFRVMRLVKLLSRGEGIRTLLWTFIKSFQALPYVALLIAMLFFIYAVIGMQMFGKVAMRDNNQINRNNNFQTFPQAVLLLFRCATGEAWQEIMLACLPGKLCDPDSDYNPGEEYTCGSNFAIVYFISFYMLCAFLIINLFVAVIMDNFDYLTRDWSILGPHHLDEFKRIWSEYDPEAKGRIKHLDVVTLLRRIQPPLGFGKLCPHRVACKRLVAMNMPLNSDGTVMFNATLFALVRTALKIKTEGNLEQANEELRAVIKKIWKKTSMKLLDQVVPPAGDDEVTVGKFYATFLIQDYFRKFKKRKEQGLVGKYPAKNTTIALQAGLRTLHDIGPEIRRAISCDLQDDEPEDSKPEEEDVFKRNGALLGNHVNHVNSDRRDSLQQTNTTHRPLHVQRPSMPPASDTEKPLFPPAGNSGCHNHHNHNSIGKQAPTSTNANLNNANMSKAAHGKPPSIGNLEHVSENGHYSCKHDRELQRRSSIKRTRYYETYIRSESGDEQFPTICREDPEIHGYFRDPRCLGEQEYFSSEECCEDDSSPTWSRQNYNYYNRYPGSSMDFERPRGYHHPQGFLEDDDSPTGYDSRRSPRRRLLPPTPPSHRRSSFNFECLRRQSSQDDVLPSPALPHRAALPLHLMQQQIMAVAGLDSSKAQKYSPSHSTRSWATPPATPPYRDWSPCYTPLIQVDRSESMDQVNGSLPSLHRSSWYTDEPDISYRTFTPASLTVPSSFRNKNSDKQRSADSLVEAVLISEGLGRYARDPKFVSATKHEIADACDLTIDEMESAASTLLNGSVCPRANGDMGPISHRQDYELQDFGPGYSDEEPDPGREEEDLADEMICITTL

Key:
Test in all cases: co-IP; endogenous proteins in BMSC lysate; lysate incubated with primary antibody overnight at 4 °C, protein A/G magnetic beads 2 h at 4 °C, washed three times with PBS 0.1% Tween-20, western blot
[1] = molecular target: T1, liver/bone/kidney alkaline phosphatase (ALPL) (mouse (endogenous in BMSCs)) (UniProt P09242)
T1 sequence: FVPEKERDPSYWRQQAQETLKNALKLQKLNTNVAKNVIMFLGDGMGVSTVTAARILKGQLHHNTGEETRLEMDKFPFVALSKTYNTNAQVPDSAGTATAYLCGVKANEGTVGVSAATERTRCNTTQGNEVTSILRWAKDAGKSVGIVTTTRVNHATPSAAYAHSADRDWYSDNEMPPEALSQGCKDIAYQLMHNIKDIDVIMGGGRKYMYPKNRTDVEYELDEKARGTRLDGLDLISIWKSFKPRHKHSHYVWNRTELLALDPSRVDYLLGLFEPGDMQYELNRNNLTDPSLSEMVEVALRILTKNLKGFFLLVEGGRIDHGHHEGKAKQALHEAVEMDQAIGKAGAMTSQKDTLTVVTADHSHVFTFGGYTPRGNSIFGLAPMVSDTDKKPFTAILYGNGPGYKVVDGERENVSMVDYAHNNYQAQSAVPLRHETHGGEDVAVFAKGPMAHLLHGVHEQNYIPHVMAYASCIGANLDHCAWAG

[2] = molecular target: α2δ subunit of the L-type Ca2+ channel (mouse (endogenous in BMSCs)) (UniProt O08532)
[3] = molecular target: L-type Ca2+ channel CaV1.2 (mouse (endogenous in BMSCs)) (UniProt Q01815)
[4] = molecular target: L-type Ca2+ channel CaV1.3 (mouse (endogenous in BMSCs)) (UniProt Q99246)

For “L-type Ca2+ channel CaV1.2 (from UniProt Q01815 1-2139)”, the binding [1] was “binds”.

“L-type Ca2+ channel CaV1.3 (from UniProt Q99246 1-2179)” was tested, and the binding [1] was “binds”.

B1: liver/bone/kidney alkaline phosphatase (ALPL) (enzyme, UniProt P09242 18-501)
chain: T1 sequence
In the case of B1, the binding [2] is reported as “binds”, the binding [3] is reported as “binds” and the binding [4] is reported as “binds”.
